# Data taken from PubChem BioAssay AID624297 (National Center for Advancing Translational Sciences (NCATS), 2012).
# Among all 340,000 compounds or so, about 6,200 (1.8%) were called active. This list was built around the results that the source calls inconclusive (neither active nor inactive); the mix of calls is not that of the screen. Calls come from the whole dose curve; as a rule, active = well fitted activation curve with a large enough effect; inconclusive = small, poorly fitted or top-dose-only effect; inactive = no such curve, though single readings can be large or run the other way. Potencies beside an inconclusive call are fits to weak or partial responses and may not hold up.
# Test: A quantitative high throughput screen for small molecules that induce DNA re-replication in SW480 colon adenocarcinoma cells. For re-replication activation: % of control where 0% means no effect. Note: nearly all actives have a fitted effect of over 55% in size.
# Conditions: Hoechst DNA content imaging, 48 h; re-replication activation: at 46.1 µM (top of the series)
# Method in brief: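 250 cells/well; 23 nL cpd via pin tool; 48 hr, 37 C, 5% CO2; Hoechst 40 min; imager read of total nuclear intensity, ex 405/em 500-530 nm.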
# Potency is the fitted concentration of half-maximal effect.
SMILES,Potency,re-replication activation
CC(=O)c1ccc(-n2nnnc2SCC(=O)N2CCc3ccccc3C2)cc1,"inconclusive: 32.6 µM [activator, single point]",–
OCCN1CCN(c2nc(-c3ccccc3)c3cc(Br)ccc3n2)CC1,active: 20.6 µM,–
O=C(CCC1CCCN(C(=O)CCCc2ccccc2)C1)N1CCN(c2ccccn2)CC1 (centres undefined),–,inactive: -10.2%
COc1ccccc1/C=C(/CC(=O)NCc1ccc2c(c1)OCO2)c1nc2ccccc2s1,–,inactive: 2.81%
Nc1c(C(=O)c2ccccc2)sc2nsc(SCCN3CCCC3)c12,"inconclusive: 8.2 µM [activator, partial curve, poor fit]",–
COc1ccc(C2(c3ccc(OC)cc3)NC(=O)N(CC(=O)Nc3ccc(C(=O)N(C)C)cc3)C2=O)cc1,"inconclusive: 29.1 µM [activator, single point]",–
O=C(O)CCS(=O)(=O)c1nc(-c2cccs2)cc(C(F)(F)F)n1,"inconclusive: 29.1 µM [activator, single point]",–
C=CCN(c1nc(C)cc(OC)n1)S(=O)(=O)c1ccc(C)cc1,–,inconclusive: -30.7% [activator]
Oc1ccccc1C1CC(c2cccs2)=NC(c2cccc(Br)c2)N1 (centres undefined),"inconclusive: 29.1 µM [activator, single point]",–
O=S(=O)(Cc1cc(Cl)nc(-c2ccccc2)n1)c1ccccc1,"inconclusive: 29.1 µM [activator, single point]",–
CCc1ccc(NC(=O)Cn2cnc3sc(C)c(S(=O)(=O)N4CCOCC4)c3c2=O)cc1,"inconclusive: 20.6 µM [activator, single point]",–
Cc1ccc(/C=N/NC(=O)c2cc(-c3ccncc3)nc3ccccc23)o1,"inconclusive: 1.3 µM [activator, full curve, poor fit]",–
COc1cc(C2c3cc4c(cc3C(O[C@@H]3OC5COC(c6cccs6)OC5C(O)C3O)C3COC(=O)C23)OCO4)cc(OC)c1O (some centres undefined),–,inactive: 14.5%
COc1ccc(-c2ccc(-c3cc(=O)oc4cc(OC)c(OC)c(OC)c34)cc2)cc1OC,"inconclusive: 5.17 µM [activator, partial curve, poor fit]",–
CCOc1ccccc1NC(=S)N(CCCN1CCOCC1)Cc1cn(C)c2ccccc12,"inconclusive: 11.6 µM [activator, partial curve]",–
C=C1SC(Nc2c(C)cc(C)cc2C)=NC12CCCCC2,"inconclusive: 16.4 µM [activator, partial curve]",–
CC(=O)c1ccc(NC(=O)CCNC(=O)c2ccc(Cl)cc2)cc1,–,inactive: -22.7%
NC(=O)c1ncn([C@@H]2O[C@H](CNCc3cnc(N4CCOCC4)s3)[C@@H](O)[C@H]2O)n1,–,inactive: 2.79%
COc1ccc(C(CNC(=O)c2cccc(S(=O)(=O)N3CCCc4ccccc43)c2)N(C)C)cc1 (centres undefined),"inconclusive: 18.4 µM [activator, single point]",–
COc1ccc(S(=O)(=O)Nc2c(C)cc(C)cc2C)c2cccnc12,–,inactive: -14.2%
Cc1cc2nc(-c3cc(N4CCOCC4)ccc3[N+](=O)[O-])ccn2n1,–,inactive: -1.88%
CC(=O)c1ccc(NC(=O)CNc2cc(S(=O)(=O)N3CCOCC3)ccc2N2CCCC2)cc1,–,inactive: -0.27%

# Part of the list above, as tab-separated lines.
SMILES	Potency	re-replication activation
Nc1c(C(=O)c2ccccc2)sc2nsc(SCCN3CCCC3)c12	inconclusive: 8.2 µM [activator, partial curve, poor fit]	–
COc1ccc(C2(c3ccc(OC)cc3)NC(=O)N(CC(=O)Nc3ccc(C(=O)N(C)C)cc3)C2=O)cc1	inconclusive: 29.1 µM [activator, single point]	–
CC(=O)c1ccc(NC(=O)CNc2cc(S(=O)(=O)N3CCOCC3)ccc2N2CCCC2)cc1	–	inactive: -0.27%

# Next records follow.

SMILES,Potency,re-replication activation
CCOC(=O)N1CCC(NS(=O)(=O)c2ccc3c(c2)oc(=O)n3C)CC1,–,inactive: -5.64%
CC(C(=O)N1CCc2ccccc21)N1CCN(S(=O)(=O)c2ccc(C(F)(F)F)cc2)CC1 (centres undefined),–,inactive: -1.71%
COc1cccc2c1C(=O)c1c(O)c3c(c(O)c1C2=O)C[C@@](O)(C(=O)CO)C[C@@H]3O[C@H]1C[C@H](N)[C@H](OC2CCCCO2)[C@H](C)O1 (some centres undefined),–,inactive: -6.87%
CN(C)CCCN(C(=O)COc1ccccc1)c1nc2cc3c(cc2s1)OCO3,–,inactive: -7.53%
CC1CCCN(c2nc3c(c(=O)n(C)c(=O)n3C)n2CCSc2nc3ccccc3o2)C1 (centres undefined),–,inactive: -16.6%
Cc1cccc(Cn2nc(C(C)(C)C)cc2C(=O)Nc2ccc(F)cc2)c1,"inconclusive: 29.1 µM [activator, single point]",–
CCOC(=O)CCC(NC(=O)CCCCCCCC(=O)NC(CCC(=O)OCC)C(=O)OCC)C(=O)OCC (centres undefined),"inconclusive: 2.06 µM [activator, partial curve, poor fit]",–
CCOC(=O)c1cnc(-n2nc(C)cc2C)nc1NC1CCCC1,–,inactive: -14.3%
COc1ccc(S(=O)(=O)Nc2cccc3c2O[C@H](CN(C)Cc2ccc(Cl)c(Cl)c2)[C@@H](C)CN([C@H](C)CO)C3=O)cc1,"inconclusive: 16.4 µM [activator, single point]",–
CCOc1cnc(C(=O)NNC(=O)C(Br)C(C)C)o1 (centres undefined),"inconclusive: 14.6 µM [activator, partial curve]",–
CCCCN1C(=O)N(c2nnc(C(C)(C)C)s2)C(O)C1c1ccc(C)cc1 (centres undefined),–,inactive: -0.144%
CCN(CC)c1nc(N)c2c(N)nc3c(c2c1C#N)CC(c1ccccc1)O3 (centres undefined),"inconclusive: 18.4 µM [activator, single point]",–
O=C(CCc1nc2ccccc2c(=O)[nH]1)N1CCN(S(=O)(=O)c2ccccc2Br)CC1,"inconclusive: 29.1 µM [activator, single point]",–
Cc1ccccc1/C=N/NC(=O)c1cccnc1,"inconclusive: 6.51 µM [activator, single point]",–
O=C(CCN1CCN(CCO)CC1)Nc1ccccc1,–,inactive: -5.01%
CCn1c(CNC(=O)c2cccs2)nnc1SCC(=O)NCCc1ccccc1,–,inactive: -10.1%
O=C(NNC(=S)Nc1ccc(Cl)cc1)c1ccccc1OC(F)F,"inconclusive: 25.9 µM [activator, single point]",–
Cc1snc(S(=O)(=O)/C(C#N)=N/Nc2cccc(C(F)(F)F)c2)c1C#N,–,inactive: -4.9%
CC(C)[C@H](NC(=O)C1CCN(S(=O)(=O)c2ccccc2)CC1)C(=O)NCc1ccncc1,–,inactive: 2.35%
CCc1noc(C)c1C(=O)N1CCSC1=Nc1cccc(Cl)c1C,–,inactive: -2.05%
O=C(c1ccccc1)c1nn(-c2ccc(Cl)cc2)c(=O)cc1C(F)(F)F,"inconclusive: 29.1 µM [activator, single point]",–
CN(Cc1ccccc1)S(=O)(=O)c1ccc(C(=O)Nc2nnc(C3CC3)o2)cc1,"inconclusive: 25.9 µM [activator, single point]",–
